Measurements taken from publication PMC7819943, “Rice protein-binding microarrays: a tool to detect cis-acting elements near promoter regions in rice”.
Some of the results follow.

Molecular target: T1, OsSMF1 (Oryza sativa, UniProt Q6ZLB0 1-436)
T1 sequence: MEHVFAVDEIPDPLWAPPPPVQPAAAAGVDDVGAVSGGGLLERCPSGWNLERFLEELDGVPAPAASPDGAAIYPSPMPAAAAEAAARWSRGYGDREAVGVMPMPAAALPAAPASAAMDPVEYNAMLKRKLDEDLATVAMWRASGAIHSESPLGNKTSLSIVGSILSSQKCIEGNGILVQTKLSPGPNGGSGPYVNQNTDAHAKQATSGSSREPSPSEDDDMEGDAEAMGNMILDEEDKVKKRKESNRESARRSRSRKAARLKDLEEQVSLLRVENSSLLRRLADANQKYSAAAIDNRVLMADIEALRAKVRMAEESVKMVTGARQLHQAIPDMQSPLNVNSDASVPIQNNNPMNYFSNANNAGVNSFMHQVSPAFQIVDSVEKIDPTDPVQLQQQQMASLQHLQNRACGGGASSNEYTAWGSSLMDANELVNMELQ
Experiment: protein-binding microarray (RPBM); PBS, 2% BSA, 51.3 ng/ul salmon testes DNA, 50 uM zinc acetate, 200 nM TF, 25 C, 1 h; high values mean tight binding
Details: protein: recombinant; tags: N-terminal polyhistidine and DsRed monomer fusion (pET32a); chain copies: 2; label: CyDye5-dUTP incorporated in the synthesized complementary strand; 3' TTTTT single-stranded linker to array surface; dsDNA, one strand shown
Method in brief: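 Binding signal is reported as fluorescence intensity per feature (arbitrary units) from an Axon 4000B scanner. Incubation used 200 nM of each Ni–NTA-purified, N-terminally polyhistidine- and DsRed-fused transcription factor from E. coli BL21-CodonPlus on a double-stranded custom Agilent array for 1 h at 25 °C, with 50 µM zinc acetate in the buffer, followed by washing.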

Compared with “CACCGGTCCTTGTCTTGCTTTGTCAGCGAGCTCGGGAAGCCGGAGTCACCTAGTGCAG”, “TTTAAACTATGTAGAGACACTTGTTAGAATAATAATATGTCGGAGTCACCTAGTGCAG” is higher in binding signal: 5340 fluorescence intensity (a.u.) for the first, 20900 fluorescence intensity (a.u.) for the second.

First: TCCCGTCTCGGCTCCTTGCGCCATCGTCGACAGGGGAGGGCGGAGTCACCTAGTGCAG
Second: TGTATTCGGCCTCAGCCACGTACGTGGGCTTTATATTGGGCGGAGTCACCTAGTGCAG
The binding signal of the first is lower: 3540 fluorescence intensity (a.u.) for the first, 5490 fluorescence intensity (a.u.) for the second.

Compared with “GCTCTCATGGGGCTTCTATCTGTATGGGTGATCTTAATGACGGAGTCACCTAGTGCAG”, “GGCGGGTGGCTGCTCGCCGGACATGGTGGGTGGGTGCGTGCGGAGTCACCTAGTGCAG” is lower in binding signal: 7940 fluorescence intensity (a.u.) for the first, 3620 fluorescence intensity (a.u.) for the second.

Going from “TAATTGGCTTGAGTTTGTTTATATGGCATTGAGTTCATCTCGGAGTCACCTAGTGCAG” to “GATCAGAGGTCAACATTTGATCTGGGAGAAGTGGTCAGCGCGGAGTCACCTAGTGCAG”, the binding signal falls from 24600 fluorescence intensity (a.u.) to 3410 fluorescence intensity (a.u.).

Going from “ACCGGCGAGCTCCTCCCCGCCCGCGACGTGGCGCGCGGAGCGGAGTCACCTAGTGCAG” to “CAATCTTGCGTGAGCCGTGAGTCCAGCAGCCACGACACTACGGAGTCACCTAGTGCAG”, the binding signal falls from 5780 fluorescence intensity (a.u.) to 4150 fluorescence intensity (a.u.).

Compared with “TCCTACGACCGTCTCGCCACGTCGGAGCCAAGGAAATTCGCGGAGTCACCTAGTGCAG”, “TCGAACTCGCTCACCATGTTCGCCACGAAGTACTCGACATCGGAGTCACCTAGTGCAG” is lower in binding signal: 8640 fluorescence intensity (a.u.) for the first, 3220 fluorescence intensity (a.u.) for the second.

First: TTGTTGCGATAAGTAGATCGACACGGCACAGAAACAGGTTCGGAGTCACCTAGTGCAG
Second: ACTCTGCACGCACAGACAAACGCCACAGAGCGGCTGCAGCCGGAGTCACCTAGTGCAG
The binding signal of the first is higher: 4040 fluorescence intensity (a.u.) for the first, 3480 fluorescence intensity (a.u.) for the second.

Compared with “TTTTCTACGATATACGTAAGGCTAAATTGGATAATTCATCCGGAGTCACCTAGTGCAG”, “CGCCAAACATCGTCCGACTCCTCCGAGGCCACGCCAGGGGCGGAGTCACCTAGTGCAG” is higher in binding signal: 3240 fluorescence intensity (a.u.) for the first, 24000 fluorescence intensity (a.u.) for the second.

First: TTCTACACGACTGCACATAAACTCCCTTTTAGGGACAATTCGGAGTCACCTAGTGCAG
Second: CAAGTTCTTGTCAAAATAGACAGAATTATGGGATTTGAGCCGGAGTCACCTAGTGCAG
The binding signal of the first is higher: 19400 fluorescence intensity (a.u.) for the first, 4220 fluorescence intensity (a.u.) for the second.

Compared with “ACCACGAACGAAGATCAATCGTCATTAATTATAAGGTGAGCGGAGTCACCTAGTGCAG”, “TCGCTTTAACGCTTTCCTGAATCAGCACACTCCTACTTGCCGGAGTCACCTAGTGCAG” is lower in binding signal: 24300 fluorescence intensity (a.u.) for the first, 4300 fluorescence intensity (a.u.) for the second.

Going from “ATGAAACAAACACTTAATTTTCACCTGACAGGTAATTAACCGGAGTCACCTAGTGCAG” to “AACGTCTCCACCAAGCTTTGTCGATCACCTCCATGCTTTCCGGAGTCACCTAGTGCAG”, the binding signal falls from 3990 fluorescence intensity (a.u.) to 3300 fluorescence intensity (a.u.).

First: ACTGCACGCCGCATGCCACCGACACCGCACGTAGAAGCTTCGGAGTCACCTAGTGCAG
Second: CAGACATGACATAGCATAAATTGCACATGATCGGACACTACGGAGTCACCTAGTGCAG
The binding signal of the first is higher: 3580 fluorescence intensity (a.u.) for the first, 3290 fluorescence intensity (a.u.) for the second.

First: GTGAGTGGTGGTGGTAGTAGTAACTGTATTTGTGCTAGTACGGAGTCACCTAGTGCAG
Second: GGCGCGCAGTGGGACCCACGTGTCGGTCTCATACTCACCACGGAGTCACCTAGTGCAG
The binding signal of the first is lower: 3450 fluorescence intensity (a.u.) for the first, 13300 fluorescence intensity (a.u.) for the second.

Compared with “CGCCGCCACTGTCGCCGGCTTGCCGCTGCCGTCGTCACCGCGGAGTCACCTAGTGCAG”, “CCAATGAACATGCATGCCACTCAATGCATGCAGTGCAGTACGGAGTCACCTAGTGCAG” is lower in binding signal: 5480 fluorescence intensity (a.u.) for the first, 3230 fluorescence intensity (a.u.) for the second.

Compared with “CGTCGCGCTCCCGCCGCTCCGCGTCCGCGTCCGCGTCGGCCGGAGTCACCTAGTGCAG”, “GAGACCCGAGTCAAGAGATATCGCCGTTTTACTAACGGTACGGAGTCACCTAGTGCAG” is lower in binding signal: 7570 fluorescence intensity (a.u.) for the first, 3390 fluorescence intensity (a.u.) for the second.

Going from “TTGAGTCAGTAGTGTTGACAACGGTCAAGGTGCCACGTCACGGAGTCACCTAGTGCAG” to “GGGTTGACTGCGCGCGCATGTCGACGTTCGGCCGCCGATCCGGAGTCACCTAGTGCAG”, the binding signal falls from 26100 fluorescence intensity (a.u.) to 15700 fluorescence intensity (a.u.).

Going from “GGTTGGATGGTTGGATTTGATGTGGATTTGAATTGTTATGCGGAGTCACCTAGTGCAG” to “GTGGAGCCCCAACCCAACTACGCCGCCGCCACCTCATCCCCGGAGTCACCTAGTGCAG”, the binding signal rises from 4290 fluorescence intensity (a.u.) to 6820 fluorescence intensity (a.u.).

Going from “ATTCAGTGCAGCAGCTGCAGGCCAAGCAGGCAGCACAGCACGGAGTCACCTAGTGCAG” to “ACGCTCGGCTGGGTGCCGGCTGGGAGTGACGCAGACGCGGCGGAGTCACCTAGTGCAG”, the binding signal falls from 3610 fluorescence intensity (a.u.) to 3420 fluorescence intensity (a.u.).

Going from “TTAACTCTTTGTTCGATTTGAGCTTAGTCACTTGATTGCACGGAGTCACCTAGTGCAG” to “TGACTCGAACCCATCCACGGCAACGAAACCGAGCCCAACCCGGAGTCACCTAGTGCAG”, the binding signal falls from 4990 fluorescence intensity (a.u.) to 3210 fluorescence intensity (a.u.).

First: GTGTGCCGCCGCCGCTGACTCCGGAGGGAGAGGACGAGCTCGGAGTCACCTAGTGCAG
Second: TGATCAAATTTAGTCGTACATGAGTCGGACAATTGAGCTGCGGAGTCACCTAGTGCAG
The binding signal of the first is lower: 3320 fluorescence intensity (a.u.) for the first, 3860 fluorescence intensity (a.u.) for the second.

Going from “CCATTGTAGACCATGCAAATGTTAATGGAGCCAATTGGTTCGGAGTCACCTAGTGCAG” to “GAGAGGAGGAGGAGGAGCACAGGGCACATGCGGATGCGGCCGGAGTCACCTAGTGCAG”, the binding signal rises from 3180 fluorescence intensity (a.u.) to 3700 fluorescence intensity (a.u.).

Compared with “AAACAAAGTGGCACAGATAAAATGGAACATAGAAGTGGCACGGAGTCACCTAGTGCAG”, “TCGTAAGTAGGGATGCACATGGGTCGGGTTAACCCAGCTACGGAGTCACCTAGTGCAG” is lower in binding signal: 40700 fluorescence intensity (a.u.) for the first, 4110 fluorescence intensity (a.u.) for the second.

First: GACGACGACCGTGACTATGGAGGCAGTGGTGACGTCGGCGCGGAGTCACCTAGTGCAG
Second: CAGAAGCGTCTACATACAATAGGATTGGGGCCTGCAAATCCGGAGTCACCTAGTGCAG
The binding signal of the first is lower: 12800 fluorescence intensity (a.u.) for the first, 55500 fluorescence intensity (a.u.) for the second.

First: GTTCGAAAGCATCACCGAAGCTAGCTTACTCCTGCCGCCACGGAGTCACCTAGTGCAG
Second: AAATAAATAGTACTATCACGAATTCACGATGCATCACCGACGGAGTCACCTAGTGCAG
The binding signal of the first is higher: 21800 fluorescence intensity (a.u.) for the first, 3370 fluorescence intensity (a.u.) for the second.

Going from “CGGGCGGGGCGGGGCGGGTTCGCTCGTCGGATGTGTGGATCGGAGTCACCTAGTGCAG” to “ATATATATATATATATATATATATATATATGTGTGTGTGTCGGAGTCACCTAGTGCAG”, the binding signal falls from 6500 fluorescence intensity (a.u.) to 3350 fluorescence intensity (a.u.).

Going from “TGACTGCCAGCAAGTGTCACGAGTCATTGGCAATGATCTTCGGAGTCACCTAGTGCAG” to “AGGGGTGCGTGTGACATATCATCAATCAATAACCAGCCTACGGAGTCACCTAGTGCAG”, the binding signal falls from 3640 fluorescence intensity (a.u.) to 3450 fluorescence intensity (a.u.).

First: TCCTCCCGCCTCTTCGACTTGCCACGGCGGTCCCGGTCCCCGGAGTCACCTAGTGCAG
Second: CAACCCAAGCCAAGCCACCTCAGCCTCGCAGCGGCGCCCCCGGAGTCACCTAGTGCAG
The binding signal of the first is lower: 4900 fluorescence intensity (a.u.) for the first, 8640 fluorescence intensity (a.u.) for the second.
